Experimental data taken from PMC3747076.
Results are given in words; binding and its absence hold for the method and conditions named. Binding seen in cells or lysates may run through a third protein. Some results given as binding are weak or reduced against the parent protein; the word gives no strength. Where a sequence is shown, tags or fusion partners need not be part of it.

By UniProt entry, the sequences of proteins in these tests, tags left out.
UniProt Q07955: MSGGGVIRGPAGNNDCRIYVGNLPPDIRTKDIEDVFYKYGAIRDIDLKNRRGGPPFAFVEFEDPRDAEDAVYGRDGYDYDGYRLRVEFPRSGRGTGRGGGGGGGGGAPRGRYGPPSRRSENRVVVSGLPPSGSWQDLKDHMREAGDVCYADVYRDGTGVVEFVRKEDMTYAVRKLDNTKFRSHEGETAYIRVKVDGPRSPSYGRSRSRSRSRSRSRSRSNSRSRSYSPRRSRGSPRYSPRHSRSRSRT
UniProt Q13242: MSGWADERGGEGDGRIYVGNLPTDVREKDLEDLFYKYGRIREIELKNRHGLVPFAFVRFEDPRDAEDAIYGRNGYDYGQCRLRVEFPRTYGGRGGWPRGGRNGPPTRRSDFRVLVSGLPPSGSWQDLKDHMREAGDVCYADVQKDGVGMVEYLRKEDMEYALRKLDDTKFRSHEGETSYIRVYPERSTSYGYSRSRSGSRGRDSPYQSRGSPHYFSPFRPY

Biological target: T1, FLAG-tagged Transformer-2β (Tra2β) (human) (UniProt P62995)
T1 sequence: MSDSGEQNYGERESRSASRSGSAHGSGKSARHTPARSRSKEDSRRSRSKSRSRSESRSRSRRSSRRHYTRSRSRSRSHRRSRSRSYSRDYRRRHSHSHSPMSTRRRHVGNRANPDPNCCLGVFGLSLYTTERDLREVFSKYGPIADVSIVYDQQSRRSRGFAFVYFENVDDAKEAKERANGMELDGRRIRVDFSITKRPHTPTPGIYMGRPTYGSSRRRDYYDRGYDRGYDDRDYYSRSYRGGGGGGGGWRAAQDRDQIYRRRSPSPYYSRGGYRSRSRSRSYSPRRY
Assay: co-IP; anti-FLAG antibody-agarose precipitates of RIPA lysates (with protease, phosphatase and ribonuclease inhibitors) of SH-SY5Y cells expressing FLAG-Tra2β, overnight at 4°C; immunoblot with antibodies specific to ASF/SF2 and SRp30c

Substance | binding
ASF/SF2 (from UniProt Q07955 1-248) | binds
SRp30c (from UniProt Q13242 1-221) | binds
